Reference: patent US12378320B2, “Methods for treating pancreatitis” (Cold Spring Harbor Laboratory, priority 2018, dated 2025)

Tested on: CA19-9 modified proteins
Test: CA19-9 IP/MS (iTRAQ) of organoid conditioned media after Dox treatment
Parameters: species or system mouse
[1] = A217 (genetic negative) organoids conditioned media, after 8 hours of treatment, CA19-9 IP with 5B1, relative to 17 0H NS19
[2] = A217 (genetic negative) organoids conditioned media, after 8 hours of treatment, CA19-9 IP with NS19-9, relative to 17 0H NS19
[3] = A217 (genetic negative) organoids conditioned media, before treatment (0H), CA19-9 IP with NS19-9, relative abundance, reference channel
[4] = A220 (C;R^LSL;F) organoids conditioned media, before treatment (0H), CA19-9 IP with 5B1, relative to 17 0H NS19
[5] = CA19-9 IP/MS relative abundance, A217 (genetic negative) organoid conditioned media, 0H (before treatment), IP with NS19-9, reference channel = 1
[6] = CA19-9 IP/MS relative abundance, A217 (genetic negative) organoid conditioned media, after 8 hours, IP with 5B1
[7] = CA19-9 IP/MS relative abundance, A217 (genetic negative) organoid conditioned media, after 8 hours, IP with NS19-9
[8] = CA19-9 IP/MS relative abundance, A220 (C;R^LSL;F) organoid conditioned media, 0H (before treatment), IP with 5B1

B1: Q9Z1Z2 (protein, UniProt Q9Z1Z2 1-350, looked up)
chain: MAMRQTPLTCSGHTRPVVDLAFSGITPYGYFLISACKDGKPMLRQGDTGDWIGTFLGHKGAVWGATLNKDATKAATAAADFTAKVWDAVSGDELMTLAHKHIVKTVDFTQDSNYLLTGGQDKLLRIYDLNKPEAEPKEISGHTSGIKKALWCSDDKQILSADDKTVRLWDHATMTEVKSLNFNMSVSSMEYIPEGEILVITYGRSIAFHSAVSLEPIKSFEAPATINSASLHPEKEFLVAGGEDFKLYKYDYNSGEELESYKGHFGPIHCVRFSPDGELYASGSEDGTLRLWQTVVGKTYGLWKCVLPEEDSGELAKPKIGFPETAEEELEEIASENSDSIYSSTPEVKA
modifications: full-length
For B1, which “17 8H 5B1” value [1] is on record?
Its value is 2.843.

And the “17 8H NS19” value [2]?
The value was 0.914.

What about the “17 0H NS19” value [3] of the same molecule?
Its value is 1.

What about the “20 0H 5B1” value [4] of the same molecule?
The value was 2.352.

B2: Q9DCV7 (protein, UniProt Q9DCV7 1-457, looked up)
chain: MSIHFSSRSTAYPGRGAQVRLSSGRASFGSRSLYGLGSSRPRVAVRSAYGGPVGAGIREITINQSLLAPLSVDIDPTIQQVRQEEREQIKTLNNKFASFIDKVRFLEQQNKMLETKWALLQEQKSAKSSQLPRIFEAQIAGLRQQLETLQLDGGRLEVELRNMQDVVEDFKNKYEEEINRRTAAENEFVLLKKDVDAAYTNKVELEAKADSLQDEINFLKTLHETELAELQSQISDTSVVLSMDNSRSLDLDGIIADVKAQYEEMANHSRAEAEAWYQTKFETLQAQAGKHGDDLRNTRNEIAEMNRSIQRLQAEIDTLKNQRAKLESSIAEAEEQGELAIKDAHAKQGELEAALQKAKQDVARQLREYQELLNTKLALDIEIATYRKLLEGEESRLSGDGMGPVNISVVNSTGGNGGKLIFGGTMGSNALSFSGGPGALRAYSIKTTSTTRRGTHN
modifications: full-length
With B2 as the molecule, how does the “17 0H NS19” value [5] read?
Its value is 1.

What about the “17 8H 5B1” value [6] of the same molecule?
The value was 3.691.

And the “17 8H NS19” value [7]?
The value was 1.01.

What about the “20 0H 5B1” value [8] of the same molecule?
Its value is 3.596.

B3: P62715 (protein, UniProt P62715 1-309, looked up)
chain: MDDKAFTKELDQWVEQLNECKQLNENQVRTLCEKAKEILTKESNVQEVRCPVTVCGDVHGQFHDLMELFRIGGKSPDTNYLFMGDYVDRGYYSVETVTLLVALKVRYPERITILRGNHESRQITQVYGFYDECLRKYGNANVWKYFTDLFDYLPLTALVDGQIFCLHGGLSPSIDTLDHIRALDRLQEVPHEGPMCDLLWSDPDDRGGWGISPRGAGYTFGQDISETFNHANGLTLVSRAHQLVMEGYNWCHDRNVVTIFSAPNYCYRCGNQAAIMELDDTLKYSFLQFDPAPRRGEPHVTRRTPDYFL
modifications: full-length
Which results are given for B3?
17 8H 5B1 [1]: 3.071; 17 8H NS19 [2]: 0.814; 17 0H NS19 [3]: 1; 20 0H 5B1 [4]: 2.716

B4: P98086 (protein, UniProt P98086 1-245, looked up)
chain: METSQGWLVACVLTMTLVWTVAEDVCRAPNGKDGAPGNPGRPGRPGLKGERGEPGAAGIRTGIRGFKGDPGESGPPGKPGNVGLPGPSGPLGDSGPQGLKGVKGNPGNIRDQPRPAFSAIRQNPMTLGNVVIFDKVLTNQESPYQNHTGRFICAVPGFYYFNFQVISKWDLCLFIKSSSGGQPRDSLSFSNTNNKGLFQVLAGGTVLQLRRGDEVWIEKDPAKGRIYQGTEADSIFSGFLIFPSA
modifications: full-length
Which “17 8H 5B1” value [1] does the source give for B4 here?
Its value is 0.151.

And the “17 8H NS19” value [2]?
The value was 0.082.

What about the “17 0H NS19” value [3] of the same molecule?
The value was 1.

And the “20 0H 5B1” value [4]?
The value was 0.068.

B5: P18528 (protein, UniProt P18528 1-98, looked up)
chain: EVQLVESGGGLVKPGGSLKLSCAASGFTFSDYYMYWVRQTPEKRLEWVATISDGGSYTYYPDSVKGRFTISRDNAKNNLYLQMSSLKSEDTAMYYCAR
modifications: full-length
Which “17 8H 5B1” value [1] does the source give for B5 here?
The value was 0.387.

What about the “17 8H NS19” value [2] of the same molecule?
Its value is 0.679.

What about the “17 0H NS19” value [3] of the same molecule?
The value was 1.

And the “20 0H 5B1” value [4]?
Its value is 0.369.

B6: Q6P5F9 (protein, UniProt Q6P5F9 1-1071, looked up)
chain: MPAIMTMLADHAARQLLDFSQKLDINLLDNVVNCLYHGEGAQQRMAQEVLTHLKEHPDAWTRVDTILEFSQNMNTKYYGLQILENVIKTRWKILPRNQCEGIKKYVVGLIIKTSSDPTCVEKEKVYIGKLNMILVQILKQEWPKHWPTFISDIVGASRTSESLCQNNMVILKLLSEEVFDFSSGQITQVKAKHLKDSMCNEFSQIFQLCQFVMENSQNAPLVHATLETLLRFLNWIPLGYIFETKLISTLIYKFLNVPMFRNVSLKCLTEIAGVSVSQYEEQFETLFTLTMMQLKQMLPLNTNIRLAYSNGKDDEQNFIQNLSLFLCTFLKEHGQLLEKRLNLREALMEALHYMLLVSEVEETEIFKICLEYWNHLAAELYRESPFSTSASPLLSGSQHFDIPPRRQLYLTVLSKVRLLMVSRMAKPEEVLVVENDQGEVVREFMKDTDSINLYKNMRETLVYLTHLDYVDTEIIMTKKLQNQVNGTEWSWKNLNTLCWAIGSISGAMHEEDEKRFLVTVIKDLLGLCEQKRGKDNKAIIASNIMYIVGQYPRFLRAHWKFLKTVVNKLFEFMHETHDGVQDMACDTFIKIAQKCRRHFVQVQVGEVMPFIDEILNNINTIICDLQPQQVHTFYEAVGYMIGAQTDQTVQEHLIEKYMLLPNQVWDSIIQQATKNVDILKDPETVKQLGSILKTNVRACKAVGHPFVIQLGRIYLDMLNVYKCLSENISAAIQANGEMVTKQPLIRSMRTVKRETLKLISGWVSRSNDPQMVAENFVPPLLDAVLIDYQRNVPAAREPEVLSTMAIIVNKLGGHITAEIPQIFDAVFECTLNMINKDFEEYPEHRTNFFLLLQAVNSHCFPAFLAIPPAQFKLVLDSIIWAFKHTMRNVADTGLQILFTLLQNVAQEEAAAQSFYQTYFCDILQHIFSVVTDTSHTAGLTMHASILAYMFNLVEEGKISTPLNPGNPVNNQMFIQDYVANLLKSAFPHLQDAQVKLFVTGLFSLNQDIPAFKEHLRDFLVQIKEFAGEDTSDLFLEERETALRQAQEEKHKLQMSVPGILNPHEIPEEMCD
modifications: full-length
Which results are given for B6?
17 8H 5B1 [1]: 1.927; 17 8H NS19 [2]: 0.494; 17 0H NS19 [3]: 1; 20 0H 5B1 [4]: 1.524

B7: P40142 (protein, UniProt P40142 1-623, looked up)
chain: MEGYHKPDQQKLQALKDTANRLRISSIQATTAAGSGHPTSCCSAAEIMAVLFFHTMRYKALDPRNPHNDRFVLSKGHAAPILYAVWAEAGFLPEAELLNLRKISSDLDGHPVPKQAFTDVATGSLGQGLGAACGMAYTGKYFDKASYRVYCMLGDGEVSEGSVWEAMAFAGIYKLDNLVAIFDINRLGQSDPAPLQHQVDIYQKRCEAFGWHTIIVDGHSVEELCKAFGQAKHQPTAIIAKTFKGRGITGIEDKEAWHGKPLPKNMAEQIIQEIYSQVQSKKKILATPPQEDAPSVDIANIRMPTPPSYKVGDKIATRKAYGLALAKLGHASDRIIALDGDTKNSTFSELFKKEHPDRFIECYIAEQNMVSIAVGCATRDRTVPFCSTFAAFFTRAFDQIRMAAISESNINLCGSHCGVSIGEDGPSQMALEDLAMFRSVPMSTVFYPSDGVATEKAVELAANTKGICFIRTSRPENAIIYSNNEDFQVGQAKVVLKSKDDQVTVIGAGVTLHEALAAAESLKKDKISIRVLDPFTIKPLDRKLILDSARATKGRILTVEDHYYEGGIGEAVSAAVVGEPGVTVTRLAVSQVPRSGKPAELLKMFGIDKDAIVQAVKGLVTKG
modifications: full-length
With B7 as the molecule, how does the “17 8H 5B1” value [1] read?
The value was 1.672.

And the “17 8H NS19” value [2]?
The value was 0.524.

What about the “17 0H NS19” value [3] of the same molecule?
The value was 1.

What about the “20 0H 5B1” value [4] of the same molecule?
Its value is 1.923.

B8: Q61171 (protein, UniProt Q61171 1-198, looked up)
chain: MASGNAQIGKSAPDFTATAVVDGAFKEIKLSDYRGKYVVLFFYPLDFTFVCPTEIIAFSDHAEDFRKLGCEVLGVSVDSQFTHLAWINTPRKEGGLGPLNIPLLADVTKSLSQNYGVLKNDEGIAYRGLFIIDAKGVLRQITVNDLPVGRSVDEALRLVQAFQYTDEHGEVCPAGWKPGSDTIKPNVDDSKEYFSKHN
modifications: full-length
Which “17 8H 5B1” value [1] does the source give for B8 here?
The value was 2.046.

What about the “17 8H NS19” value [2] of the same molecule?
Its value is 0.513.

What about the “17 0H NS19” value [3] of the same molecule?
The value was 1.

And the “20 0H 5B1” value [4]?
Its value is 1.655.

B9: Q8VED5 (protein, UniProt Q8VED5 1-531, looked up)
chain: MRSSLSRQTFSTKGGFSSNSASGGGGSRMRTSYSSVTMSRGSGGGGGVRSGSSSGGFGSRSLYNLGGKNISVSMACGASSGRALGGFGSGAYVGLGASRQTFGPVCPPGGIQEVTVNQSLLTPLNVEIDPEIQRVRTQEREQIKTLNNKFASFIDKVRFLEQQNKVLETKWALLQEQSQNTGVARSLEPFFENYLSTLRRQLDTKQSERGRLDMELRNVQDNLEDFKNKYEDEINKRTALENEFVLLKKDVDAAYMGRMDLHGKVDSLTQEIDFLQQLFEMELSQVQTNVSDTNVILSMDNNRNLDLDSIIAEVKAQYELIAQKSRAEAESWYQTKYEELQVTAGKHGDSLRDTKNEIAELTRTTQRLQGEVDAAKKQCQQLQTAIAEAEQNGEMALKDAKKKLGDLDTALHQAKEDLARMLREYQDLVSVKLALDMEIATYRKLLESEESRMSGDCPSAISISVTGNSTSVCAGGTAGFGNGLSLGGAGGASKGGFGSSVSYGAAKGGQVSGGTSILRKTTTVKTSSRRY
modifications: full-length
Which “17 0H NS19” value [5] does the source give for B9 here?
The value was 1.

What about the “17 8H 5B1” value [6] of the same molecule?
Its value is 0.726.

What about the “17 8H NS19” value [7] of the same molecule?
The value was 1.679.

And the “20 0H 5B1” value [8]?
The value was 1.138.
